From the supplement of paper PMC12823440, “Inhibitors supercharge kinase turnover through native proteolytic circuits” (Nature, 2025) come the findings set out here.

Chains of the proteins cited; added tags and fusions are not shown. Lines headed by an entry give the natural chain unless they say otherwise; changes in a name come on top.
UniProt P07949, whole entry, looked up: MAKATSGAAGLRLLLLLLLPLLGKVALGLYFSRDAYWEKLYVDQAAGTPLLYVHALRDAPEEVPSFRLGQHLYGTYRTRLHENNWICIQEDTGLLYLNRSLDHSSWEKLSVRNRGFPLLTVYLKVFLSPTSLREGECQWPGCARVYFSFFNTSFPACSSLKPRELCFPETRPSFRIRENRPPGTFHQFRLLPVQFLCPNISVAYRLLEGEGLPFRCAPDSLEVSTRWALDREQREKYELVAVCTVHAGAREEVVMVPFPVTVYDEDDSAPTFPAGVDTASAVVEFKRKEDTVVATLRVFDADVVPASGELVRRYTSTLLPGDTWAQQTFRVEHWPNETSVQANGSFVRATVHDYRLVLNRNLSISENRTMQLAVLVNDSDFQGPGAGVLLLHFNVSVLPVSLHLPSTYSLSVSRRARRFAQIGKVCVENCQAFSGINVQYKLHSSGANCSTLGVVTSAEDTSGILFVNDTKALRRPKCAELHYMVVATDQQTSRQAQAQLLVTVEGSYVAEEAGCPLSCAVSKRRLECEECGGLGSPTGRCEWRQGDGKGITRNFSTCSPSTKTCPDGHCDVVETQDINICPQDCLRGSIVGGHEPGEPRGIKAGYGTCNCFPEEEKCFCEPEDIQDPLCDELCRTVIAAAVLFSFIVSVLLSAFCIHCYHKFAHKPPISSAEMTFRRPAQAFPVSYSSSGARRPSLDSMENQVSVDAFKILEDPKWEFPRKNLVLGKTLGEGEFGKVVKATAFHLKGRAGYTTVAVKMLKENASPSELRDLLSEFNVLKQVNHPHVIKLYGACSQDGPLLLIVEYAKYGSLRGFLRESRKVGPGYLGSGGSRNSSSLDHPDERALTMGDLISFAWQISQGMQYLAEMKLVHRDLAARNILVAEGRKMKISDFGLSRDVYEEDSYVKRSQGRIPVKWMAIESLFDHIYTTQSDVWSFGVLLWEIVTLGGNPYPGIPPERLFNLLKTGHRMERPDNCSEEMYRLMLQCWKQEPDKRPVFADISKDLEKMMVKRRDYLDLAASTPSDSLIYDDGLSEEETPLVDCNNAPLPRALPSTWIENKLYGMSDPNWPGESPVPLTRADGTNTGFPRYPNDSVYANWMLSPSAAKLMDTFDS
UniProt P07949, whole entry M918T, looked up: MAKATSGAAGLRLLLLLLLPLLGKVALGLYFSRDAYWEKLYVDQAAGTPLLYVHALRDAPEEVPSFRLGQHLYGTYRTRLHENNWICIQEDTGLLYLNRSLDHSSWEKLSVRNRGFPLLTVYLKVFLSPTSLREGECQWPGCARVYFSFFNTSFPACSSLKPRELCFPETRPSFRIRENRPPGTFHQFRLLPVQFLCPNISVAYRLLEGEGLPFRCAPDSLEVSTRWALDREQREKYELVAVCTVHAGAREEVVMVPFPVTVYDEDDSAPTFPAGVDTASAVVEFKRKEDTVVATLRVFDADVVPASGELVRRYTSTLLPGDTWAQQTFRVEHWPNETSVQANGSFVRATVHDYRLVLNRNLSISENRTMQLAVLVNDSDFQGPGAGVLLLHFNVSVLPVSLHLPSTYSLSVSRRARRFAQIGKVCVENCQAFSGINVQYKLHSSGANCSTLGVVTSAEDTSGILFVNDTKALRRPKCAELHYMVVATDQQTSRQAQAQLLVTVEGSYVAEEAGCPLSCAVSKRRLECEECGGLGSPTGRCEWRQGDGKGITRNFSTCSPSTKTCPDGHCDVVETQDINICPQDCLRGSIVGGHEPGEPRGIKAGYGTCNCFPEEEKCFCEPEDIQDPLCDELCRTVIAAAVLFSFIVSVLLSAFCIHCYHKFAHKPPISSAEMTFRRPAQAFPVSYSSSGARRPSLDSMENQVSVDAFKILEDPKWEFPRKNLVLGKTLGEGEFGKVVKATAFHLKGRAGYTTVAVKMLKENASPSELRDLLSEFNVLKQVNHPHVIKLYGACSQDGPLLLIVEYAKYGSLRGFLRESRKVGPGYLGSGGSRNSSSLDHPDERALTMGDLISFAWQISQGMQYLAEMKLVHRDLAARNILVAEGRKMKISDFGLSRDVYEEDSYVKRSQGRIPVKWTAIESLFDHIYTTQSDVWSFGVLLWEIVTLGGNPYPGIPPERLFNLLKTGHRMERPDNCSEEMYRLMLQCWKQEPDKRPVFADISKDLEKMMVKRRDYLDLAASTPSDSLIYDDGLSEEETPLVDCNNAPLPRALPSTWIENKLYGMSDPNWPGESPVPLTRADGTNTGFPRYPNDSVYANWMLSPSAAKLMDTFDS
UniProt Q9BRS2: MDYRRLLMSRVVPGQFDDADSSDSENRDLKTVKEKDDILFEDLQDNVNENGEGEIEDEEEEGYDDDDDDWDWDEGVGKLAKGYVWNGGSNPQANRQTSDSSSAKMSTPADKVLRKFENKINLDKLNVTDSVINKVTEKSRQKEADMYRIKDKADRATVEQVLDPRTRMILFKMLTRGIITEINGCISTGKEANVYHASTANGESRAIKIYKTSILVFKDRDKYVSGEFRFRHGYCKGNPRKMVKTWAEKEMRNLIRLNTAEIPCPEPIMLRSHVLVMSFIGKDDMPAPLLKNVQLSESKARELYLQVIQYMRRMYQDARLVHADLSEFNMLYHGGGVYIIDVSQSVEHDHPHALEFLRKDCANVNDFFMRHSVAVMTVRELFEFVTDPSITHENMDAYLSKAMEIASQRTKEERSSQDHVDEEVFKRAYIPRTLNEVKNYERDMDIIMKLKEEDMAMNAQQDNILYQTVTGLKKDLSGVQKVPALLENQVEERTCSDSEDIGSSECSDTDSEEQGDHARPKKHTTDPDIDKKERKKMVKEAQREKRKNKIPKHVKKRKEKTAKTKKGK
UniProt Q13546: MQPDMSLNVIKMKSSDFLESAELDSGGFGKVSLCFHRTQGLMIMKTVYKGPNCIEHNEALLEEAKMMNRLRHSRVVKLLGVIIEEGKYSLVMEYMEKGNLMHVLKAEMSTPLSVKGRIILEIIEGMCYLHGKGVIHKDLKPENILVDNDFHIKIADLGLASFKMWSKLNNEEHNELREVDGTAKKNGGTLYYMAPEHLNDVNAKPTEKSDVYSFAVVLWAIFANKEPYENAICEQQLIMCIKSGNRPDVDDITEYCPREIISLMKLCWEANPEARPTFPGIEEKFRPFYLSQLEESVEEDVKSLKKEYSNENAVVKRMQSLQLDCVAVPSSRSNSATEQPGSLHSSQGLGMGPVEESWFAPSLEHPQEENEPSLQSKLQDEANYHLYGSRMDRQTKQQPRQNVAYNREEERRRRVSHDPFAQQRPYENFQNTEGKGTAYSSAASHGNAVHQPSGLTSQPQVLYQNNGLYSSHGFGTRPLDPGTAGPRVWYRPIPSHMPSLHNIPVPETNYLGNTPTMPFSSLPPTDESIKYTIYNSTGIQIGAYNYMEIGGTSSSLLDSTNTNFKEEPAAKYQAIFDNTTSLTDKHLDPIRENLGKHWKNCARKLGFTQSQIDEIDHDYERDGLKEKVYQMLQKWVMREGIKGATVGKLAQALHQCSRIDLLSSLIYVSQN
UniProt Q01974, whole entry: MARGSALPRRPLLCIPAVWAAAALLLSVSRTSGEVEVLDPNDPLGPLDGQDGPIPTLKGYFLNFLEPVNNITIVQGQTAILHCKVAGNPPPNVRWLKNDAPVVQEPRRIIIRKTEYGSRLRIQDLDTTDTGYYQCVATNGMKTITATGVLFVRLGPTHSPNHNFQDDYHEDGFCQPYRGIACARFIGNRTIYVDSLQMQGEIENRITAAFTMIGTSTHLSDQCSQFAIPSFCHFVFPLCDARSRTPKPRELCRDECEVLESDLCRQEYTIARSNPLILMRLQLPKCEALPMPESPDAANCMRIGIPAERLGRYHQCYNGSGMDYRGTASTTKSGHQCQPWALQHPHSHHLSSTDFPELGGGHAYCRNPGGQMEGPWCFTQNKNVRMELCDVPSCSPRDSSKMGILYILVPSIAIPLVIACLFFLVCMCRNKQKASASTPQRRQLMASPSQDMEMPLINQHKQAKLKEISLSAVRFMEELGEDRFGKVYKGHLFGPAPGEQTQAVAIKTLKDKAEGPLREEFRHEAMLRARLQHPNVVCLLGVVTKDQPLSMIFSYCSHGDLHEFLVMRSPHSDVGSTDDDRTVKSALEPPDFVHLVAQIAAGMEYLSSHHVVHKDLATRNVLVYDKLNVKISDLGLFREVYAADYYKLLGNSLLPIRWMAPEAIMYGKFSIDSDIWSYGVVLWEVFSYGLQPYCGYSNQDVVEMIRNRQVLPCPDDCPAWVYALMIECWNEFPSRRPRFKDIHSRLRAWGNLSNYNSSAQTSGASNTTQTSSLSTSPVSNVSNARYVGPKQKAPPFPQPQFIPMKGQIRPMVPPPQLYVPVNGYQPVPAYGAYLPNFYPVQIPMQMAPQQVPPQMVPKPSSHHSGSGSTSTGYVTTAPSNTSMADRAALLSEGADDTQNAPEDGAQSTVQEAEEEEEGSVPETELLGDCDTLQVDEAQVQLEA
UniProt Q15418, whole entry: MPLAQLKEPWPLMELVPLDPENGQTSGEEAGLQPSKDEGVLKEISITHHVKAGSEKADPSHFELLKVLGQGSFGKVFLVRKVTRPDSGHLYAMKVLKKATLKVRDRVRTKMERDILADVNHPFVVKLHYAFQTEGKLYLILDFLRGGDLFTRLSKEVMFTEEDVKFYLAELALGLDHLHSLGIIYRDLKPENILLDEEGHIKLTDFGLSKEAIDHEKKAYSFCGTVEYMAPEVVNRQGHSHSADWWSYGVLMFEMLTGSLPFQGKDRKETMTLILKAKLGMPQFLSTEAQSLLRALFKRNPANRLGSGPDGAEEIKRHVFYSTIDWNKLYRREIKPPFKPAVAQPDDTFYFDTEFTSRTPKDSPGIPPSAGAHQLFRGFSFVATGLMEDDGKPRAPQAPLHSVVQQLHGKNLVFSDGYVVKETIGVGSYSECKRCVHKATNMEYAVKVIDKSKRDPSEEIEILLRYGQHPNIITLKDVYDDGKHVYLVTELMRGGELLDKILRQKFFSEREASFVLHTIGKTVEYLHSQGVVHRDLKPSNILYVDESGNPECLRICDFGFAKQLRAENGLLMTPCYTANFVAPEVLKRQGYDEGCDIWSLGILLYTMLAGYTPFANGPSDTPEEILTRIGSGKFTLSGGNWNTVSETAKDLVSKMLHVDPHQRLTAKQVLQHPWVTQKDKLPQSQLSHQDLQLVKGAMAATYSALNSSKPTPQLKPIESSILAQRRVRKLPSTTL
UniProt Q9NYA1, whole entry: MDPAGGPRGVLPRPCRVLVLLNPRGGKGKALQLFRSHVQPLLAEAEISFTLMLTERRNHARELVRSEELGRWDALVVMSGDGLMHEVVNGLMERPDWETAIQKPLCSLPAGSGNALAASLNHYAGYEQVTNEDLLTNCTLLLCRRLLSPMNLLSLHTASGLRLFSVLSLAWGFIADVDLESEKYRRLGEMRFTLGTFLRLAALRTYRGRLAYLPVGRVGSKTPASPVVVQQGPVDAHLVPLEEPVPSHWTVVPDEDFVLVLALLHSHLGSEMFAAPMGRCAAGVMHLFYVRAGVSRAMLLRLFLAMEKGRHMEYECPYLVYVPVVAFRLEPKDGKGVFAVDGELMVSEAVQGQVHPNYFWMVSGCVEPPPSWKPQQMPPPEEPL
UniProt Q9Y6E0: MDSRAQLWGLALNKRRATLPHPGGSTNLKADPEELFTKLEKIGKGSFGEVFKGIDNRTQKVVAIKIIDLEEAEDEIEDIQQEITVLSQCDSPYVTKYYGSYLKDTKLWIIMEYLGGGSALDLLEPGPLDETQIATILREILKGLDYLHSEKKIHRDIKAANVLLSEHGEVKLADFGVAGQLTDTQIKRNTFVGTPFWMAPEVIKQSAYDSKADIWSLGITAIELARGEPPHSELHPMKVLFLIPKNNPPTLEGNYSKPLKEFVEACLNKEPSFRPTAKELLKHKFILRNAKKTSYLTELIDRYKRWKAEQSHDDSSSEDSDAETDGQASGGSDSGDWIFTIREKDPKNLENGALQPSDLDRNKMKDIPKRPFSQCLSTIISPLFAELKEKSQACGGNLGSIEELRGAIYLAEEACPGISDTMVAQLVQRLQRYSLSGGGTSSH

The list shows a part of the results. The calls rarely recur for the same compound in another form.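 Kinases were expressed as nanoluciferase fusions in K562 cells and luminescence was read every 4 h between 2 and 18 h as percent of control, DMSO set to 100% and a positive control to 0%. A time point counts as decreased when the signal drops significantly (2 sigma). The hit call is the authors' own, does not follow from the count of time points alone, and its rule is not shown.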

Some targets named below: RET (UniProt P07949); RIOK1 (UniProt Q9BRS2); RIPK1 (UniProt Q13546); RIPK2 (UniProt O43353); ROR2 (UniProt Q01974); RPS6KA1 (UniProt Q15418); SPHK1 (UniProt Q9NYA1); SRC (UniProt P12931); STK24 (UniProt Q9Y6E0).
Common to all, as to test: kinase-Nluc reporter destabilization hit call (1 = scored as downregulated) (binary); higher = compound decreases kinase abundance
Conditions in all cases: K562; 2-18 h

In assay [1] the target is RET_M918T (clone: RET_mut) (UniProt P07949).

Turning to `Cc1cc(-c2cc(OC(=O)c3ccccc3)ccc2Cl)cc2nnc(Nc3ccc(OCCN4CCCC4)cc3)nc12` (0.5 µM), the “kinase-Nluc reporter destabilization hit call” value in the assay with RET was inactive: 0; in assay [1], inactive: 0; with RIOK1, inactive: 0; in the assay with RIPK1, inactive: 0; with RIPK2, active: 1; with ROR2, inactive: 0. Besides, the “kinase-Nluc reporter destabilization hit call” value with RPS6KA1, with SPHK1, in the assay with SRC and in the assay with STK24 was inactive: 0 in each case.
For `COc1cccc(-n2c(=O)[nH]c3cc(Cl)n(-c4ccc(-c5cccc(OC)c5O)cc4)c3c2=O)c1` (2.5 µM), the “kinase-Nluc reporter destabilization hit call” value (with RET; in assay [1]; with RIOK1; with RIPK1; with RIPK2; with ROR2) was inactive: 0 throughout. For the same compound, the “kinase-Nluc reporter destabilization hit call” value with RPS6KA1, in the assay with SPHK1, with SRC and in the assay with STK24 was inactive: 0 in each case.
As to `O=c1oc2cc(O)ccc2c2ccccc12` [Urolithin B] (10 µM), the “kinase-Nluc reporter destabilization hit call” value (in the assay with RET; in [1]; in the assay with RIOK1; in the assay with RIPK1; in the assay with RIPK2; in the assay with ROR2) was inactive: 0 each time. In addition, the “kinase-Nluc reporter destabilization hit call” value with RPS6KA1, in the assay with SPHK1, with SRC and with STK24 was inactive: 0 throughout.
For `CC(C)=CC(=O)CCC(=O)N1CCN(Cc2cc3nc(-c4cccc5[nH]ncc45)nc(N4CCOCC4)c3s2)CC1` (10 µM), the “kinase-Nluc reporter destabilization hit call” value (with RET; in [1]; with RIOK1; with RIPK1; with RIPK2; in the assay with ROR2) was inactive: 0 each time. Further, the “kinase-Nluc reporter destabilization hit call” value with RPS6KA1 is inactive: 0; with SPHK1 it was active: 1; in the assay with SRC, inactive: 0; with STK24, inactive: 0.
In the case of `Cn1c(=O)c(F)c(Nc2ccc(I)cc2F)c2c(=O)n(C[C@@H](O)CO)cnc21` (10 µM), the “kinase-Nluc reporter destabilization hit call” value (with RET; in assay [1]; with RIOK1; with RIPK1; with RIPK2; with ROR2) was inactive: 0 throughout. Besides, the “kinase-Nluc reporter destabilization hit call” value in the assay with RPS6KA1, in the assay with SPHK1, with SRC and in the assay with STK24 was inactive: 0 throughout.
With `COc1ccc2c(c1O)OC(C)(C)c1c-2ccc2c1C(=O)N(c1ccc(C(=O)c3ccccc3)cc1)C2=O` [Ampkinone] (10 µM), the “kinase-Nluc reporter destabilization hit call” value (with RET; in assay [1]; in the assay with RIOK1; in the assay with RIPK1; in the assay with RIPK2; in the assay with ROR2) was inactive: 0 each time. The “kinase-Nluc reporter destabilization hit call” value in the assay with RPS6KA1, with SPHK1, in the assay with SRC and in the assay with STK24 was inactive: 0 in each case.
Regarding `c1cn2cc(-c3ccc4cn[nH]c4c3)nc(Nc3ccc(N4CCOCC4)cc3)c2n1` [Entospletinib] (10 µM), the “kinase-Nluc reporter destabilization hit call” value (with RET; in assay [1]; in the assay with RIOK1; with RIPK1; in the assay with RIPK2; with ROR2) was inactive: 0 in each case. For the same compound, the “kinase-Nluc reporter destabilization hit call” value in the assay with RPS6KA1, in the assay with SPHK1, with SRC and in the assay with STK24 was inactive: 0 each time.
Regarding `CC/C=C\C/C=C\C/C=C\CCCCCCCC(=O)O` [α-Linolenic acid] (10 µM), the “kinase-Nluc reporter destabilization hit call” value (with RET; in assay [1]; with RIOK1; in the assay with RIPK1; with RIPK2; with ROR2) was inactive: 0 in each case. Further, the “kinase-Nluc reporter destabilization hit call” value in the assay with RPS6KA1, in the assay with SPHK1, with SRC and with STK24 was inactive: 0 in each case.
Take `CC(C)CN[C@H]1CS(=O)(=O)C[C@@H]1S(=O)(=O)c1ccc(Cl)cc1` (10 µM): the “kinase-Nluc reporter destabilization hit call” value (with RET; in assay [1]; with RIOK1; in the assay with RIPK1; in the assay with RIPK2; in the assay with ROR2) was inactive: 0 in each case. The “kinase-Nluc reporter destabilization hit call” value in the assay with RPS6KA1, with SPHK1, with SRC and with STK24 was inactive: 0 throughout.
In the case of `CCn1c(=O)c(-c2ccc(-c3cncs3)cc2Cl)cc2cnc(Nc3ccc(N4CCN(C)CC4)cc3)nc21` (2.5 µM), the “kinase-Nluc reporter destabilization hit call” value (with RET; in assay [1]; in the assay with RIOK1; in the assay with RIPK1; in the assay with RIPK2; with ROR2) was inactive: 0 throughout. For the same compound, the “kinase-Nluc reporter destabilization hit call” value in the assay with RPS6KA1, with SPHK1, in the assay with SRC and with STK24 was inactive: 0 throughout.
For `N#Cc1cccc(-c2c[nH]c3ncnc(N4CCOCC4)c23)c1` (10 µM), the “kinase-Nluc reporter destabilization hit call” value (in the assay with RET; in assay [1]; with RIOK1; with RIPK1; with RIPK2; in the assay with ROR2) was inactive: 0 throughout. Besides, the “kinase-Nluc reporter destabilization hit call” value in the assay with RPS6KA1, with SPHK1, with SRC and with STK24 was inactive: 0 throughout.
Turning to `N#Cc1c(-c2ccccc2)cc(-c2cc(Br)ccc2O)[nH]c1=O` (10 µM), the “kinase-Nluc reporter destabilization hit call” value (with RET; in assay [1]; in the assay with RIOK1; in the assay with RIPK1; with RIPK2; in the assay with ROR2) was inactive: 0 each time. Besides, the “kinase-Nluc reporter destabilization hit call” value with RPS6KA1, with SPHK1, with SRC and with STK24 was inactive: 0 throughout.
Take `O=C1NC(=O)C(=Cc2ccc(-c3ccc(F)cc3)o2)S1` (stereo in doubt) (10 µM): the “kinase-Nluc reporter destabilization hit call” value (with RET; in assay [1]; in the assay with RIOK1; in the assay with RIPK1; in the assay with RIPK2; with ROR2) was inactive: 0 in each case. In addition, the “kinase-Nluc reporter destabilization hit call” value with RPS6KA1, with SPHK1, with SRC and with STK24 was inactive: 0 throughout.
